Experiment [1] deals with MET full intracellular domain (ICD: residues K956-S1390) (human) (UniProt P08581). The experiment can be described thus: SEC-MALS; 100 µl of 20 µM dephosphorylated protein, Shodex KW-802.5 column, 4°C; both purified.
Experiment [2] concerns the target MET kinase domain with the C-tail (KD: residues Q1048-S1390) (human) (UniProt P08581). The description is as above.

By UniProt entry, the sequences of proteins in these tests, tags left out. Residues count along the entry.
MET full intracellular domain (ICD: residues K956-S1390) (P08581, residues 956-1390): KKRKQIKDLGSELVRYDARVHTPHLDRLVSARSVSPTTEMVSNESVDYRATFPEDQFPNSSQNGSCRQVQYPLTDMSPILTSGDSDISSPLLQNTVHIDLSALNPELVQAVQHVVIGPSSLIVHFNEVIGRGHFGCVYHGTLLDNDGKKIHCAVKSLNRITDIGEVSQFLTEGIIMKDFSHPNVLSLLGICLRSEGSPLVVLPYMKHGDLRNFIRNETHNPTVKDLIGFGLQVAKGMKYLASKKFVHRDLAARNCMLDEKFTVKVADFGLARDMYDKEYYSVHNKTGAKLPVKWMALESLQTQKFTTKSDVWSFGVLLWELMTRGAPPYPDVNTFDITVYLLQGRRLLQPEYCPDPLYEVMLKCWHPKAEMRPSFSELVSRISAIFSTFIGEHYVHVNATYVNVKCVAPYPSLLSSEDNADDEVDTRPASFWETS
MET kinase domain with the C-tail (KD: residues Q1048-S1390) (P08581, residues 1048-1390): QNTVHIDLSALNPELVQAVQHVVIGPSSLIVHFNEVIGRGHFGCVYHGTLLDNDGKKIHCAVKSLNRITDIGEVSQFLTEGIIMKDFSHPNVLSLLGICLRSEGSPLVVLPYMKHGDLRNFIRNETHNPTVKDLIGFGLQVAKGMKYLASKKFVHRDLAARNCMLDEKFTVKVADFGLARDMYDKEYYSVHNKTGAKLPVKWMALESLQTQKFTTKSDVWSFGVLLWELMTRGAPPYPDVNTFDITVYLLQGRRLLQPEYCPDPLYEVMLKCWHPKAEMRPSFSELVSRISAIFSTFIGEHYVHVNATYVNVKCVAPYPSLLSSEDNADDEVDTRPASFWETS

Results are given in words; binding and its absence hold for the method and conditions named.

Regarding “MET full intracellular domain (ICD: residues K956-S1390) (from UniProt P08581 956-1390) (domain or fragment)”, the binding entry in experiment [1] is “no binding (tested: 20 µM)”.

Turning to “MET kinase domain with the C-tail (KD: residues Q1048-S1390) (from UniProt P08581 1048-1390) (domain or fragment)”, the binding result in experiment [2] is given as “no binding (tested: 20 µM)”.

These data come from PMC12751062.
